Laboratory results as given in article PMC12499447.
Results are given in words; binding and its absence hold for the method and conditions named. Binding seen in cells or lysates may run through a third protein. Some entries that bind do so weakly or less than the wild type. For part of these data: Where a sequence is shown, tags or fusion partners need not be part of it.

Sequences of proteins named here, by UniProt entry; tags and fusion partners are left off.
UniProt P49336: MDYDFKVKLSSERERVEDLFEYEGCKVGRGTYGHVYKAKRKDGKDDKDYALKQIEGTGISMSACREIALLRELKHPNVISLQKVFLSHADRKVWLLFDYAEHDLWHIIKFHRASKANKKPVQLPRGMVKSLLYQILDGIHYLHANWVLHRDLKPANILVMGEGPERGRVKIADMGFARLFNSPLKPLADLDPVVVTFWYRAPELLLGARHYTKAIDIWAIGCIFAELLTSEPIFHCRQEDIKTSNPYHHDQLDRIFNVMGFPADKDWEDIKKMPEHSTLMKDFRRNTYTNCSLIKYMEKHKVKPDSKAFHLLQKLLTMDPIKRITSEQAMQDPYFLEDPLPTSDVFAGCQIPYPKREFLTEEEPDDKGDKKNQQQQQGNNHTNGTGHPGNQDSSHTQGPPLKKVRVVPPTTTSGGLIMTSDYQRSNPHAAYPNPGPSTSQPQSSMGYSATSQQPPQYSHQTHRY
UniProt P49759: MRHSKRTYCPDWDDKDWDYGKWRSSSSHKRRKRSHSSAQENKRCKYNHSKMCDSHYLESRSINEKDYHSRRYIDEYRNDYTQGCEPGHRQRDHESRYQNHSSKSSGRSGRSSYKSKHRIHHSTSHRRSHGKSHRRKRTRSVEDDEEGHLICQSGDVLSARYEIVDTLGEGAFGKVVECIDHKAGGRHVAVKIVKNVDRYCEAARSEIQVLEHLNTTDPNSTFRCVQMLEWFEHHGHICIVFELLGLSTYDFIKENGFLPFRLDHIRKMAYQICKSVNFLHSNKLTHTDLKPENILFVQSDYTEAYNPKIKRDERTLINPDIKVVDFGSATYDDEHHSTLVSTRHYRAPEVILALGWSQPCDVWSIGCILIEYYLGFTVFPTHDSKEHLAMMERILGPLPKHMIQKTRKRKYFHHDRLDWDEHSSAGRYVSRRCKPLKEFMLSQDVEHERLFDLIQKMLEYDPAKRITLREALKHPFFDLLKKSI
UniProt P68400: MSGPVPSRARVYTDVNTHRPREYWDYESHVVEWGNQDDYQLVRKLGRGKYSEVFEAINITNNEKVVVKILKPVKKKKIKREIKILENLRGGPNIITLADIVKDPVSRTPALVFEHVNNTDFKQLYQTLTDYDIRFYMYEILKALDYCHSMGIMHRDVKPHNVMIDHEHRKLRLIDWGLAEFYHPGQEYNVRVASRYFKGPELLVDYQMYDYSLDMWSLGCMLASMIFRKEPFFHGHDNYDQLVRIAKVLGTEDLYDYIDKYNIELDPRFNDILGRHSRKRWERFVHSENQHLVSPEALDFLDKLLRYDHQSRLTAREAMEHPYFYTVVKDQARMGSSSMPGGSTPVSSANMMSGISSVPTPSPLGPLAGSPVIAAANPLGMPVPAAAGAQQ
UniProt Q9P0L2: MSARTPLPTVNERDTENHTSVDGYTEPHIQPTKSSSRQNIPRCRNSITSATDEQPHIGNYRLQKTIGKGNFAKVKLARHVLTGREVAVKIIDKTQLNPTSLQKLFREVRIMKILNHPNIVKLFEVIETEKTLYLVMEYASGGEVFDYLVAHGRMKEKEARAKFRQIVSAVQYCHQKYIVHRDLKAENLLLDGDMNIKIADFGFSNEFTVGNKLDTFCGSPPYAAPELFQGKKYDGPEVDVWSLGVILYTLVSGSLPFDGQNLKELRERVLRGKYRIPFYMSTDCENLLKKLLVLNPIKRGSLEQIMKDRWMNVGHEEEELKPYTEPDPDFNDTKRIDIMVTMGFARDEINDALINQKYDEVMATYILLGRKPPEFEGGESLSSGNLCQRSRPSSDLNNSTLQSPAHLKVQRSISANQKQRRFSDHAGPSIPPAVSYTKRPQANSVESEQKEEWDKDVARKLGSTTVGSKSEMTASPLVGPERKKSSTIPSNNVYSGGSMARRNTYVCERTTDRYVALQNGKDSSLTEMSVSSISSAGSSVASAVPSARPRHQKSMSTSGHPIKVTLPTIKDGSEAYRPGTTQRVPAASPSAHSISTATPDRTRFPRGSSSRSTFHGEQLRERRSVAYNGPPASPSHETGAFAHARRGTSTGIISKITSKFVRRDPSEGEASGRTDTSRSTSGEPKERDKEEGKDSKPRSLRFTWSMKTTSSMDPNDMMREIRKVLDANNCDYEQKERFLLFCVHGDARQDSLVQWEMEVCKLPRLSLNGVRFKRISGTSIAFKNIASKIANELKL
UniProt Q96SB4: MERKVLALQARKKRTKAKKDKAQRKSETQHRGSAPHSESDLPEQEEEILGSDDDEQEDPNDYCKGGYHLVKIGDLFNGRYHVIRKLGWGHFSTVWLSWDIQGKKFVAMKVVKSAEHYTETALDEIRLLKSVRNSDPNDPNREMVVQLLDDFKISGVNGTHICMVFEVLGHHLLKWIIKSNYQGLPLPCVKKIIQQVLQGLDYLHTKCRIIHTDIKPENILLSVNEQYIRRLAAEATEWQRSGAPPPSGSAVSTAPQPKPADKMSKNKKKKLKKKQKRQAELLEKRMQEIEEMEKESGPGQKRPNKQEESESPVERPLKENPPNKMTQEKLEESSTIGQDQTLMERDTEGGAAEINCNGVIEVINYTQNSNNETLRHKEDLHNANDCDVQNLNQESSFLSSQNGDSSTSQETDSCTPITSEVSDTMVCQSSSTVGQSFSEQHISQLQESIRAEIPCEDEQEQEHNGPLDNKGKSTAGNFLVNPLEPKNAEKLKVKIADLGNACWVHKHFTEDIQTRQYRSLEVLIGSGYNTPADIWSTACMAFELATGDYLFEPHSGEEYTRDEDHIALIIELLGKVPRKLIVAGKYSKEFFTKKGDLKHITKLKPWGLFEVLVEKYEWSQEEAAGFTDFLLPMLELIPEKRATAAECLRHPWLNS

Key:
[1] = target: T1, API5^WT, exogenous (tag not told for these experiments) (human) (UniProt Q9BZZ5); experiment: co-IP; candidate kinases predicted by GPS 6.0 screened against API5 (Figures S7 and S8B); constructs and cells not shown
T1 sequence: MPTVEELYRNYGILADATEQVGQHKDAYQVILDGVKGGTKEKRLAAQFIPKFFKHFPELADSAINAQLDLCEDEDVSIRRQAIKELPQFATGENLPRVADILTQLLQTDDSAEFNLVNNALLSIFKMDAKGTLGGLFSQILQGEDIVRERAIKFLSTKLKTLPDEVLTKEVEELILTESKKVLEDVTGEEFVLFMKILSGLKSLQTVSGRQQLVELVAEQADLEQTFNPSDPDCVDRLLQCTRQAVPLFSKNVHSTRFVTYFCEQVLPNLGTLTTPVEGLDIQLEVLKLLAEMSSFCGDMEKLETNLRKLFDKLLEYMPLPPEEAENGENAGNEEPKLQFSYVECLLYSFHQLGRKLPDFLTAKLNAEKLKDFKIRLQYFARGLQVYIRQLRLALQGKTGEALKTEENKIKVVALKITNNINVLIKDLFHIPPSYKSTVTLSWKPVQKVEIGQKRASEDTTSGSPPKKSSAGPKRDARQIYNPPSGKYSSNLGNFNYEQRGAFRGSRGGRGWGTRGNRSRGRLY

[2] = target: T2, Apoptosis inhibitor 5 (API5), endogenous (human (endogenous in A549 and HEK293T)) (UniProt Q9BZZ5); experiment: co-IP
T2 sequence: T1 sequence

Substance | binding [1] | binding [2]
CDK8 (candidate kinase in the co-IP screen) (from UniProt P49336 1-464) (enzyme) | binds | 
CLK1 (candidate kinase in the co-IP screen) (from UniProt P49759 1-484) (enzyme) | binds | 
CSNK2A1 (candidate kinase in the co-IP screen) (from UniProt P68400 1-391) (enzyme) | binds | 
MARK1 (candidate kinase in the co-IP screen) (from UniProt Q9P0L2 1-795) (enzyme) | binds | 
SRPK1 (candidate kinase in the co-IP screen) (from UniProt Q96SB4 1-655) (enzyme) | binds | 
Serine/arginine-rich protein kinase 1 (SRPK1), endogenous (from UniProt Q96SB4 1-655) (enzyme) |  | binds
